Experimental data as given in US20230382910A1, “HETEROARYL COMPOUNDS FOR THE TREATMENT OF PAIN” (VERTEX PHARMACEUTICALS INCORPORATED, priority 2022, published 2023).
pIC50: −log10 of the molar value. Some of these results come from one statement about several compounds together.

Chains of the proteins cited; added tags and fusions are not shown. Residues count along the entry.
UniProt Q9Y5Y9, 660-890 limits assumed: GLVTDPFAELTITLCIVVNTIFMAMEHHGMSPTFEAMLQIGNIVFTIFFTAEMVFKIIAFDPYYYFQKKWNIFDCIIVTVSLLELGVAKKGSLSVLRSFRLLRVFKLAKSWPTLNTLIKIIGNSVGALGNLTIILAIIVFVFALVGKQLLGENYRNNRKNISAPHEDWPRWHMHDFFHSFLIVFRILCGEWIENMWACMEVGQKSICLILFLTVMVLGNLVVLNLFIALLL
UniProt Q9Y5Y9, 1148-1722 limits assumed: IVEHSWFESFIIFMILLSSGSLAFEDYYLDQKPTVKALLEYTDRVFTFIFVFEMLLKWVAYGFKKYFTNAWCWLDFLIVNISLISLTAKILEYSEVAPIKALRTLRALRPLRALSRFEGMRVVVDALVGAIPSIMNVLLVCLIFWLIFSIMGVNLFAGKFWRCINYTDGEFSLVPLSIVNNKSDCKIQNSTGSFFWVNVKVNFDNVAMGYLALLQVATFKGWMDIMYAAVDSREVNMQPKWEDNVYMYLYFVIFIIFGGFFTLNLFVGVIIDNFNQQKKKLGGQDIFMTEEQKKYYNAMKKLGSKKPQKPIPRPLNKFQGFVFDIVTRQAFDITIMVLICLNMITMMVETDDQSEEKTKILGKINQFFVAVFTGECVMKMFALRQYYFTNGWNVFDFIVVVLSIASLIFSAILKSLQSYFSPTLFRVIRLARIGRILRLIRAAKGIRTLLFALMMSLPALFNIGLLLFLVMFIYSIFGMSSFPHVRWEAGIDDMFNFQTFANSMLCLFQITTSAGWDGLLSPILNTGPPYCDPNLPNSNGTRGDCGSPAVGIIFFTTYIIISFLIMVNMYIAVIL
UniProt Q9Y5Y9, 126-399 limits assumed: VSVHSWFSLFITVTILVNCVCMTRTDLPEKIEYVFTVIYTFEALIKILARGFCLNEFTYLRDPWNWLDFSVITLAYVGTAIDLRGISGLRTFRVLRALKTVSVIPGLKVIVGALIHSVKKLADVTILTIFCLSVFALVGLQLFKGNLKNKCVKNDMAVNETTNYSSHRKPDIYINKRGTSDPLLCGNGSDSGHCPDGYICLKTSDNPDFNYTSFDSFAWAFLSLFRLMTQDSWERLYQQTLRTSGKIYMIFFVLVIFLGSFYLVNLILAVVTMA

Target: human NaV 1.8 (Homo sapiens, UniProt Q9Y5Y9)
Experiment: E-VIPR Assay Detecting and Measuring NaV Inhibition Properties
Assay type: cell-based
Conditions: HEK cells expressing a truncated form of human NaV 1.8; electrical stimulation, membrane potential FRET dyes; read-out: measured IC50 value in the E-VIPR Assay

Structure (SMILES) | pIC50
Cc1cc([Si](C)(C)C)ccc1-c1cc(=O)c2ccccc2[nH]1 [Compound 115, 2-(2-methyl-4-trimethylsilyl-phenyl)-1H-quinolin-4-one] | > 6.30
Cc1cc([Si](C)(C)C)ccc1-c1cc(=O)c2cnccc2[nH]1 [Compound 116, 2-(2-methyl-4-trimethylsilyl-phenyl)-1H-1,6-naphthyridin-4-one] | > 6.30
Cc1cc(C(C)(C)C)ccc1-c1[nH]c2ccccc2c(=O)c1C [Compound 127, 2-(4-tert-butyl-2-methyl-phenyl)-3-methyl-1H-quinolin-4-one] | > 6.30
Cc1cc(C(C)(C)C)ccc1-c1[nH]c2ccc(F)cc2c(=O)c1C [Compound 128, 2-(4-tert-butyl-2-methyl-phenyl)-6-fluoro-3-methyl-1H-quinolin-4-one] | > 6.30
Cc1cc(C(C)(C)C)c(C)cc1-c1cc(=O)c2c(C#N)cccc2[nH]1 [Compound 129, 2-(4-tert-butyl-2,5-dimethyl-phenyl)-4-oxo-1H-quinoline-5-carbonitrile] | > 6.30
Cc1cc(C(C)(C)C)ccc1-c1cc(=O)c2cc(C(F)(F)F)ccc2[nH]1 [Compound 130, 2-(4-tert-butyl-2-methyl-phenyl)-6-(trifluoromethyl)-1H-quinolin-4-one] | ≤ 5.30
Cc1cc(C(C)(C)C(F)(F)F)ccc1-c1cc(=O)c2c(C#N)cccc2[nH]1 [Compound 131, 2-[2-methyl-4-(2,2,2-trifluoro-1,1-dimethyl-ethyl)phenyl]-4-oxo-1H-quinoline-5-carbonitrile] | > 6.30
Cc1nc(C(C)(C)C)ccc1-c1cc(=O)c2c(C#N)cccc2[nH]1 [Compound 132, 2-(6-tert-butyl-2-methyl-3-pyridyl)-4-oxo-1H-quinoline-5-carbonitrile] | > 6.30
Cc1cc(C(C)(C)C)ccc1-c1[nH]c2cc(F)ccc2c(=O)c1C [Compound 133, 2-(4-tert-butyl-2-methyl-phenyl)-7-fluoro-3-methyl-1H-quinolin-4-one] | > 6.30
Cc1c(-c2ccc(C(C)(C)C)cc2)[nH]c2ccccc2c1=O [Compound 134, 2-(4-tert-butylphenyl)-3-methyl-1H-quinolin-4-one] | > 6.30

Further lines, results first:

pIC50 | Structure (SMILES)
> 6.30 | CC(C)(C)c1ccc(-c2cc(=O)c3cnccc3[nH]2)c(Cl)c1 [Compound 110, 2-(4-tert-butyl-2-chloro-phenyl)-1H-1,6-naphthyridin-4-one]
> 6.30 | CCOC(=O)c1c(-c2ccc(C(C)(C)C)cc2C)[nH]c2ccc(F)cc2c1=O [Compound 112, ethyl 2-(4-tert-butyl-2-methyl-phenyl)-6-fluoro-4-oxo-1H-quinoline-3-carboxylate]
> 6.30 | Cc1cc(C(C)(C)C)c(C)cc1-c1cc(=O)c2cnccc2[nH]1 [Compound 114, 2-(4-tert-butyl-2,5-dimethyl-phenyl)-1H-1,6-naphthyridin-4-one]
> 6.30 | Cc1cc(C(C)(C)C(F)(F)F)ccc1-c1cc(=O)c2cc(F)ccc2[nH]1 [Compound 119, 6-fluoro-2-[2-methyl-4-(2,2,2-trifluoro-1,1-dimethyl-ethyl)phenyl]-1H-quinolin-4-one]
> 6.30 | Cc1cc(C(C)(C)C(F)(F)F)ccc1-c1cc(=O)c2ccc(F)cc2[nH]1 [Compound 120, 7-fluoro-2-[2-methyl-4-(2,2,2-trifluoro-1,1-dimethyl-ethyl)phenyl]-1H-quinolin-4-one]
> 6.30 | Cc1cc(C2(C)CCC2)ccc1-c1cc(=O)c2cc(F)ccc2[nH]1 [Compound 121, 6-fluoro-2-[2-methyl-4-(1-methylcyclobutyl)phenyl]-1H-quinolin-4-one]
> 6.30 | Cc1cc(C2(C)CCC2)ccc1-c1cc(=O)c2ccc(F)cc2[nH]1 [Compound 122, 7-fluoro-2-[2-methyl-4-(1-methylcyclobutyl)phenyl]-1H-quinolin-4-one]
> 6.30 | Cc1cc(C(C)(C)C)ccc1-c1cc(=O)c2c(F)cccc2[nH]1 [Compound 125, 2-(4-tert-butyl-2-methyl-phenyl)-5-fluoro-1H-quinolin-4-one]
